Reference: PMC6509187

Molecular target: T1, DNAX activation protein of 12 kDa (DAP12) (pig (endogenous in PAMs)) (UniProt Q9TU45)
T1 sequence: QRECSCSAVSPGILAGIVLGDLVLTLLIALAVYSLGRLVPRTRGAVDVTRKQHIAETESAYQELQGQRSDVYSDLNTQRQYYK
Assay: co-IP

- binding: binds
Substance: nonmuscle myosin heavy chain IIA (NMHC-IIA) (pig (endogenous in PAMs))

These are yes or no findings as the source states them, for the method shown. In cells and extracts the contact can be indirect. Binding calls can cover weak binding; strength is not graded here.
